Some of the results follow.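 How the source made its calls: active = dose-dependent thermal stabilisation significant by F-test of dose-response against flat model at 10% FDR; inactive = not significant.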

Chains of the proteins cited; added tags and fusions are not shown. Lines headed by an entry give the natural chain unless they say otherwise; changes in a name come on top.
UniProt Q9UJW0, whole entry: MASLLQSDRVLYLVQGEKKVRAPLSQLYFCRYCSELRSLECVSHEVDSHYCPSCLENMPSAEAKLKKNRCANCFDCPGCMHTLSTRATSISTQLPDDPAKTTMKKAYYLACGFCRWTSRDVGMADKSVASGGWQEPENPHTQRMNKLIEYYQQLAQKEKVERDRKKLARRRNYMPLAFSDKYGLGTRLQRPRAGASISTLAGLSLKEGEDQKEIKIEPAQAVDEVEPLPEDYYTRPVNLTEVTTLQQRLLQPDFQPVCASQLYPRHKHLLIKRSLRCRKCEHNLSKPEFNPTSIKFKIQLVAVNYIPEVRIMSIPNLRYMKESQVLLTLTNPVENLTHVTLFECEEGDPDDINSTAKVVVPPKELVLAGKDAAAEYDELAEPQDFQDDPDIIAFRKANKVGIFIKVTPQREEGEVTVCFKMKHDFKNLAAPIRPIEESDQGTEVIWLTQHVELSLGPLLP
UniProt P51397: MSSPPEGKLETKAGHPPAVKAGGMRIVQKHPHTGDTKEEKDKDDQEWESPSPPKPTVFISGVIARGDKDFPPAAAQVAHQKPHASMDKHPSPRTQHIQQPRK
UniProt O75935, whole entry: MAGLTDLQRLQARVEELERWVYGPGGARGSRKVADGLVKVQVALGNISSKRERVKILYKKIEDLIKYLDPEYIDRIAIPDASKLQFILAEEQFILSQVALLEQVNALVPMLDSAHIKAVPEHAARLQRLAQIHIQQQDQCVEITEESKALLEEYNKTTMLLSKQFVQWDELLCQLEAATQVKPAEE
UniProt Q9NR30: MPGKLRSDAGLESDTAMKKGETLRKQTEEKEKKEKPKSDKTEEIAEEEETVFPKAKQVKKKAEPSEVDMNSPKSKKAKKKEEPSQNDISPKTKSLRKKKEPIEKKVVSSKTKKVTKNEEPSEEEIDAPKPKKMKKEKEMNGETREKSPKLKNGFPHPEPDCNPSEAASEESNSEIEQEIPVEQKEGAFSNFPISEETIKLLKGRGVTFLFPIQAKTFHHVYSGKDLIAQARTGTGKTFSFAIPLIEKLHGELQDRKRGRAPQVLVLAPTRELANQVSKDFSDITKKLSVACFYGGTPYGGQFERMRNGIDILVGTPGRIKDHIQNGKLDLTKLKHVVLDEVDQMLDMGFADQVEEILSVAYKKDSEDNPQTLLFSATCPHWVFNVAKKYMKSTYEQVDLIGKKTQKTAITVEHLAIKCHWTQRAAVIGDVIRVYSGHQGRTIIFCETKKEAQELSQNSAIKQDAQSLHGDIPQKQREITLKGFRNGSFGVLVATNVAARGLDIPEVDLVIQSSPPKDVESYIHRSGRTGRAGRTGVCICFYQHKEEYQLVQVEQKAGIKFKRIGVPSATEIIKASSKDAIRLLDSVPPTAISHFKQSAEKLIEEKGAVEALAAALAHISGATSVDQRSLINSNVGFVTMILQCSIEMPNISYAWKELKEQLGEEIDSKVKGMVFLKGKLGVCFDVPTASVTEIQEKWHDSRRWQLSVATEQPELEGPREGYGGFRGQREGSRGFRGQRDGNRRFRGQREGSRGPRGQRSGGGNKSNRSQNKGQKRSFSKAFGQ
UniProt O43310: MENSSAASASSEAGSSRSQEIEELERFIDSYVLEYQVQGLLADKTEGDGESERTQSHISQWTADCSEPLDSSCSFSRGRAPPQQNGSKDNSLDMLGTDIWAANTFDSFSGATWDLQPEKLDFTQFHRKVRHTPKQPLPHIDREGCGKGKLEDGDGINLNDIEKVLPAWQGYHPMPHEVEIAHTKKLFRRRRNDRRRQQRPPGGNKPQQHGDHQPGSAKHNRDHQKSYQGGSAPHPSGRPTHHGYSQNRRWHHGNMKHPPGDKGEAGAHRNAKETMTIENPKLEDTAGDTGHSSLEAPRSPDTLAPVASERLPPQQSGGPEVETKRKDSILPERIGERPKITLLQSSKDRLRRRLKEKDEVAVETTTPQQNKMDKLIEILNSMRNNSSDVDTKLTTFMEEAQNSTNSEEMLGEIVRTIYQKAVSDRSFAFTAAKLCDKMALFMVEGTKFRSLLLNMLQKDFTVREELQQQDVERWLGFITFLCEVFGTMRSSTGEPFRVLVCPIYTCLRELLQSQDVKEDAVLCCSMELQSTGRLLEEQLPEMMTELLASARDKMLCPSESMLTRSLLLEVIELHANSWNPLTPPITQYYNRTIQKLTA
UniProt Q96DF8: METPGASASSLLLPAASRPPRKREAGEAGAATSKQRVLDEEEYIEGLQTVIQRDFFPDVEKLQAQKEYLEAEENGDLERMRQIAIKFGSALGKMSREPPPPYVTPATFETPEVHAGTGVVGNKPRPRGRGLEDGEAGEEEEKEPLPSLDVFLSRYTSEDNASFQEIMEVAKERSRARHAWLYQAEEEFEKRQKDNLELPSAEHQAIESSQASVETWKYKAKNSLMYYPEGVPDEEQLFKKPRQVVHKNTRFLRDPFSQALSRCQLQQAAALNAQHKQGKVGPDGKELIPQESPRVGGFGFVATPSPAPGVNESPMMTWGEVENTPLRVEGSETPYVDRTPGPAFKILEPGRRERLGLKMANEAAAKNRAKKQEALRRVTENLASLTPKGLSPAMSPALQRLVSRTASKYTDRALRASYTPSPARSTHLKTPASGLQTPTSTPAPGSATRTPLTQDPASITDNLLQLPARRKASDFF
UniProt P19784, whole entry, looked up: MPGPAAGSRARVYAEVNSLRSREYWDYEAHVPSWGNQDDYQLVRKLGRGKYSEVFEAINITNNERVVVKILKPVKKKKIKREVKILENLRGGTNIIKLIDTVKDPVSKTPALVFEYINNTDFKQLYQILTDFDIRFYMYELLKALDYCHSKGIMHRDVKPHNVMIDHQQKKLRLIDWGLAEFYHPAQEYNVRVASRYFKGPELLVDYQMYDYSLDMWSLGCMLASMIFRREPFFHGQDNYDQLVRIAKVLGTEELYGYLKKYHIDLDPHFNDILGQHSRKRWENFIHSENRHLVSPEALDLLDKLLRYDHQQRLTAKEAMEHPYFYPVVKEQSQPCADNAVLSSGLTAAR
UniProt O95825: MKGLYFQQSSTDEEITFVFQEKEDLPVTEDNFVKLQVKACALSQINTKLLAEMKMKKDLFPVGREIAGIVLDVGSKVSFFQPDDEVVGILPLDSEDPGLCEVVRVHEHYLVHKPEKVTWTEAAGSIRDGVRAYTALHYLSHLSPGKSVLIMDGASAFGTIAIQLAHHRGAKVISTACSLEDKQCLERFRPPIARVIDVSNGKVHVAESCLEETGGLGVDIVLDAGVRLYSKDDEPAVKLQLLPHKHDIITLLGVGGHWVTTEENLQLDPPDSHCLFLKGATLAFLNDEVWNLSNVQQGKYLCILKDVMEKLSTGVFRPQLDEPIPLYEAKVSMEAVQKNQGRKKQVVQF
UniProt Q93034, whole entry: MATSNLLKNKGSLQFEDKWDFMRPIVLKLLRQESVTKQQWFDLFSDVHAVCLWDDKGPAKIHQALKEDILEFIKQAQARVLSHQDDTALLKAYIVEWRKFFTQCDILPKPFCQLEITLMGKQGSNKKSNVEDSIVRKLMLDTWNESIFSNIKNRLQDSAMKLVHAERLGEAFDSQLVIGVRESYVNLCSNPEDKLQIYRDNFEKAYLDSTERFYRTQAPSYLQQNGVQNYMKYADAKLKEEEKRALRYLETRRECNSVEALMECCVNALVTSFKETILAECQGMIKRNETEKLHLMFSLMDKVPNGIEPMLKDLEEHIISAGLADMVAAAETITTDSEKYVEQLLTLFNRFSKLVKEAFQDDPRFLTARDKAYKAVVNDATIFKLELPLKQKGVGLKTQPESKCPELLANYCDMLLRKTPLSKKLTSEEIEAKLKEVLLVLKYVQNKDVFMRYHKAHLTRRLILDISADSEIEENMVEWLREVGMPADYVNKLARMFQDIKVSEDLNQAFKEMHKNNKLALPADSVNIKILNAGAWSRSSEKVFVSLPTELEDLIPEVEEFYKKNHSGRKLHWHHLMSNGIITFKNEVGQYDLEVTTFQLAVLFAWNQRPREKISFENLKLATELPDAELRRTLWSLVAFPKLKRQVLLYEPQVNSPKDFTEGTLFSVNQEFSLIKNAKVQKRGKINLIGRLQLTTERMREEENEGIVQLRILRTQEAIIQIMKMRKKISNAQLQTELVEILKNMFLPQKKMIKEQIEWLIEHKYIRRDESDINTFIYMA
UniProt P68104, whole entry: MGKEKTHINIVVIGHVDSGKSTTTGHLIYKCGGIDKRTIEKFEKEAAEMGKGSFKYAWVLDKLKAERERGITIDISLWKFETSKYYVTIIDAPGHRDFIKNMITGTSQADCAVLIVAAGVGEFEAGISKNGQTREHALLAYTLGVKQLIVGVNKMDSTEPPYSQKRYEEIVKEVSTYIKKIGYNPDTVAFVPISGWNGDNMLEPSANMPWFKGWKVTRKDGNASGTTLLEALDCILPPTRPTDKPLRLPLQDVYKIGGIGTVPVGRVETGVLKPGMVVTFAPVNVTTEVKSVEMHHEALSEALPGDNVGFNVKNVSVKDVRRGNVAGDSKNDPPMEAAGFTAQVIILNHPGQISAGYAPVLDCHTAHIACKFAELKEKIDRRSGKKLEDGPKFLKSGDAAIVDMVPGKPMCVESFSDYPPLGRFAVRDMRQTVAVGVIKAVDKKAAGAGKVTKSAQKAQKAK
UniProt P17844: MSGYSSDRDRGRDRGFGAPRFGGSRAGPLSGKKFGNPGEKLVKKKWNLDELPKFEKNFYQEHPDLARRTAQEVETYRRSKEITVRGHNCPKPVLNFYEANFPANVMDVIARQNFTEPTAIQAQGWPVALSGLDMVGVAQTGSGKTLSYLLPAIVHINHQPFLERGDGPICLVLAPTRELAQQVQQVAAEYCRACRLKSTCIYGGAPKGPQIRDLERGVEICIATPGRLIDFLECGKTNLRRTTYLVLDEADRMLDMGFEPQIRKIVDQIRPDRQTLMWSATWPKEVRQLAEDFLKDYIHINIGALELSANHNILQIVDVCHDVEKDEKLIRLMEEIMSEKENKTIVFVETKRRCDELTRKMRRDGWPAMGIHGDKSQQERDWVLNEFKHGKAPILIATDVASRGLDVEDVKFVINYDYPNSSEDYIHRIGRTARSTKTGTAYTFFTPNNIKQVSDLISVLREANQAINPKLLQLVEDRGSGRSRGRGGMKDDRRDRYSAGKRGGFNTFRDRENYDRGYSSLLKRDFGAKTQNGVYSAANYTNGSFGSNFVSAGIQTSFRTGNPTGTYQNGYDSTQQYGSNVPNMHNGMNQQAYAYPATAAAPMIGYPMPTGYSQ
UniProt Q9BZG8: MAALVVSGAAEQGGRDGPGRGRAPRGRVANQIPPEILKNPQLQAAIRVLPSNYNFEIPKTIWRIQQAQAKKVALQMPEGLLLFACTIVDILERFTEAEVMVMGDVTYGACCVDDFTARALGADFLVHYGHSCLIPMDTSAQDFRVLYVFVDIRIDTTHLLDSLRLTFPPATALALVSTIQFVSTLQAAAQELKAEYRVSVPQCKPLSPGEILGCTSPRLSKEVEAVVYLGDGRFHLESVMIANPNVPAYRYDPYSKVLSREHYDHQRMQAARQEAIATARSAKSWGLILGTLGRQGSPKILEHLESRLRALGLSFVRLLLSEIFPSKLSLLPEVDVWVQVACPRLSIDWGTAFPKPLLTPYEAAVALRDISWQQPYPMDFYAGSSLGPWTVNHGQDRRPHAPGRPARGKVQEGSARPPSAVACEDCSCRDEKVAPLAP
UniProt Q9Y5B0: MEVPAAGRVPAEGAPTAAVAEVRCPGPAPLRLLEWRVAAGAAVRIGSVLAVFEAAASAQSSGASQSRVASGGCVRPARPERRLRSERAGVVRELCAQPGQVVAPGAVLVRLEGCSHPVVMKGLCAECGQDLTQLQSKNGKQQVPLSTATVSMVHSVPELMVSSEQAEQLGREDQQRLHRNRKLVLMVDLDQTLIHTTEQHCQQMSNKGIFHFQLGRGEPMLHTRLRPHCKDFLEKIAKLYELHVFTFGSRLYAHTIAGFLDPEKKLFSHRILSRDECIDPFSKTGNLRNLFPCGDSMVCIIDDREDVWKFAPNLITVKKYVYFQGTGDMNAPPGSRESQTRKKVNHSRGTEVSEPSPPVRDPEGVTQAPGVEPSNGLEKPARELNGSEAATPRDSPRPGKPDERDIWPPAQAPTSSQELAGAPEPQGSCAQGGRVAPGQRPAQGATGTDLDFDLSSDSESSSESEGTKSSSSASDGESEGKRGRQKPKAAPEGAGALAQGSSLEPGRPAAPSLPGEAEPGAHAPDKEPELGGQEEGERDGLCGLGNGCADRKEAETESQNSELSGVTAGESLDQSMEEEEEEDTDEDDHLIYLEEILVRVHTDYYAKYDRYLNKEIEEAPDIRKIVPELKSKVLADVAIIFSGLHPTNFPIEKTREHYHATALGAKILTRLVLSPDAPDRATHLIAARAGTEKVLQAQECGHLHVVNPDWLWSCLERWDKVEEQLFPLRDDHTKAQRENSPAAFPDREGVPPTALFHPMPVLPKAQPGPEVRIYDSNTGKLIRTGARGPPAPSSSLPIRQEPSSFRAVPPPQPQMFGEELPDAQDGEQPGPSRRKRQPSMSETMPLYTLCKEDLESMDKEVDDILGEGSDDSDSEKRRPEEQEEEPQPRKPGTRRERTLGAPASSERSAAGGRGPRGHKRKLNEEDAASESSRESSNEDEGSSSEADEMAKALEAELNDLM

Compound in the test: Nc1nc2c(ncn2[C@@H]2O[C@H](COP(=O)(O)OP(=O)(O)OP(=O)(O)O)[C@@H](O)[C@H]2O)c(=O)[nH]1
As to the kind of experiment: dose-dependent thermal stabilisation call (2D-TPP, DLPTP, 10% FDR) (binary (1 = stabilised)); higher = stabilised by the compound. The note with it: system: Jurkat gel-filtered lysate; concentration range 1-500 µM. Here is the method: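 2D thermal proteome profiling in gel-filtered Jurkat E6.1 lysate (2 mg/ml) treated with NaGTP (0, 1, 10, 100, 500 uM) for 10 min at room temperature, then heated 3 min at one of 12 temperatures (42-63.9 C). Soluble protein was quantified by TMT10 MS. The value is the DLPTP call of the paper: dose-dependent thermal stabilisation over all temperatures at 10% FDR (F-test of a dose-response against a flat model); one experiment, one call per tested protein.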
With DCTN4 (UniProt Q9UJW0), the “dose-dependent thermal stabilisation call” value is inactive: 0.
Consider DCXR (UniProt Q7Z4W1), for which the “dose-dependent thermal stabilisation call” value was inactive: 0.
Regarding DAP (UniProt P51397), the “dose-dependent thermal stabilisation call” value was inactive: 0.
The result for DHPS (UniProt P49366) reads inactive: 0.
The result for CWF19L2 (UniProt Q2TBE0) reads inactive: 0; that for DIMT1 (UniProt Q9UNQ2), inactive: 0.
Turning to CTR9 (UniProt Q6PD62), the “dose-dependent thermal stabilisation call” value is inactive: 0.
For ECD (UniProt O95905) the value was inactive: 0; for DDTL (UniProt A6NHG4), inactive: 0.
Consider DCAF15 (UniProt Q66K64), for which the “dose-dependent thermal stabilisation call” value is inactive: 0.
For CYFIP2 (UniProt Q96F07) the value was inactive: 0; for DAP3 (UniProt P51398), inactive: 0.
For the target DCTN3 (UniProt O75935), the “dose-dependent thermal stabilisation call” value is inactive: 0.
For the target DPCD (UniProt Q9BVM2), the “dose-dependent thermal stabilisation call” value is inactive: 0.
Turning to CUTC (UniProt Q9NTM9), the “dose-dependent thermal stabilisation call” value is inactive: 0.
The result for ECH1 (UniProt Q13011) reads inactive: 0; that for DLG1 (UniProt Q12959), inactive: 0; that for DIS3L2 (UniProt Q8IYB7), inactive: 0.
The result for DDX21 (UniProt Q9NR30) reads active: 1; that for ECHDC1 (UniProt Q9NTX5), inactive: 0.
Turning to DNAJC3 (UniProt Q13217), the “dose-dependent thermal stabilisation call” value is inactive: 0.
For CS (UniProt O75390) the value was inactive: 0; for CTIF (UniProt O43310), inactive: 0; for DGCR14 (UniProt Q96DF8), inactive: 0.
The result for EEF2 (UniProt P13639) reads active: 1; that for CSNK2A2 (UniProt P19784), active: 1; that for DCAF5 (UniProt Q96JK2), inactive: 0.
With CRYZL1 (UniProt O95825), the “dose-dependent thermal stabilisation call” value was active: 1.
With CUL5 (UniProt Q93034), the “dose-dependent thermal stabilisation call” value is inactive: 0.
For the target CUL4A (UniProt Q13619), the “dose-dependent thermal stabilisation call” value is inactive: 0.
Turning to EEF1A1 (UniProt P68104), the “dose-dependent thermal stabilisation call” value is active: 1.
For DDX5 (UniProt P17844), the “dose-dependent thermal stabilisation call” value was active: 1.
Turning to DPF2 (UniProt Q92785), the “dose-dependent thermal stabilisation call” value was inactive: 0.
As for DAXX (UniProt Q9UER7), the “dose-dependent thermal stabilisation call” value was inactive: 0.
As to DPH1 (UniProt Q9BZG8), the “dose-dependent thermal stabilisation call” value is active: 1.
For DIP2A (UniProt Q14689) the value was inactive: 0; for DNAJC21 (UniProt Q5F1R6), inactive: 0.
For DPH7 (UniProt Q9BTV6) the value was inactive: 0; for DNAJC2 (UniProt Q99543), active: 1.
Take CTDP1 (UniProt Q9Y5B0): the “dose-dependent thermal stabilisation call” value is inactive: 0.

For the origin of these results see the supplement of paper PMC7666118.
